# Results of single-concentration screens

Results are given as percent effect. How 0% and 100% were set is not recorded. Most values in the screen are low, and negative values occur. The compounds are a random part of those screened. Two or more numbers in one place are separate tests of the same structure; such repeats can differ widely.

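Whole-cell growth test on Mycobacterium tuberculosis, read after 3 days in glucose-containing 7H9 medium; the read-out is not stated. Compounds at 50 µM. Direction is inferred from retests: higher values go with more growth inhibition. Size under these conditions: about 69,000 compounds, about 760 of them at 50% or above in at least one test.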

compound,effect
CCn1cc(CN2CCCN(C(=O)c3ccccc3C)CC2)cn1,-22.88
COc1ccccc1CNc1ncc(-c2cc(C)no2)c(C(C)C)n1,26.89
CCc1ccccc1NC(=O)NCc1nnc(SC)n1C,-11.57
CC(=O)N1CCC(C(=O)N2CCOC(CC3CCCCC3)C2)CC1 (stereo not given),30.42
CNc1ccc(CC2CCCN(C(=O)c3cnccn3)C2)nn1 (stereo not given),-2.227
CN(C)C(=O)c1ccc2c(c1)N(C)C(CC(=O)NCc1ccno1)CO2 (stereo not given),-10.23 and 0.4765
Cc1ccc(C#N)c(N2CC(C)(C)[C@@](C)(O)C2)n1,-11.11
Cn1cnnc1CCNC(=O)c1ccccc1OC1CCC1,3.266 and -0.08496
COc1ccc(N(C(=O)Cc2ccc(C)nc2)C(C)C)cc1F,-13.96
CC(C)N1CCCC1c1cc(CCO)[nH]n1 (stereo not given),-0.4251
CN(Cc1ccsc1)C(=O)c1ccc(C2CCCO2)s1 (stereo not given),40.45
CCc1cccc(NC(=O)N2CCn3cnc(COC)c3C2)c1,16.39
COc1c(CNCc2cccc(CN(C)C)c2)c(C)nn1C.Cl,-6.64
O=C(O)C(F)(F)F.[H][C@@]12OCCN(C(=O)c3ccc(C)nc3)[C@@]1([H])CC[C@H]2OC,1.401 and 19.58
COCCN1CCC(NC(=O)NCC2(c3cccc(F)c3)CC2)C1 (stereo not given),-1.823
Cn1c(CC2CCS(=O)(=O)C2)nnc1SCCOc1cccc(Cl)c1 (stereo not given),12.74
O=C(CCNC(=O)c1ccoc1)Nc1cc(F)ccc1F,-4.374
CC(C(=O)NCc1ccco1)N1CCN(Cc2nccn2C)CC1 (stereo not given),-13.82
O=C(c1ccc2c(c1)OCO2)N1CCC[C@]2(C[C@H](OCC3CC3)CO2)C1,16.95
COc1ccccc1OCC(=O)NCc1ncc(C)c(OC)c1C,-3.877
CCOC1CCCN(C(=O)Nc2cnn(CC(F)F)c2)C1 (stereo not given),0.7292 and 0.9212
CC(C)CN1CCN(C(=O)c2cccnc2-n2cncn2)CC1,-40.09 and -10.01
CC(=O)N1CCCn2nc(CNC(=O)N3CCCCC3)cc2C1,-15.66
CN(CC(=O)N(C)C1CCN(CC2CCOC2)CC1)c1ccccc1 (stereo not given),27.33
Cc1cc(C(=O)NC(C)Cc2ccc(N(C)C)cc2)n(C)n1 (stereo not given),27.17
[H][C@]12CNC[C@@]1(C(=O)NCCOCCO)CN(C1CCCC1)C2,6.507
CN(CCc1ccccc1)Cc1cc(C(=O)N2CCCC2(C)C)no1,-27.9
O=C(O)C(F)(F)F.[H][C@@]12CCN(C3CCCCC3)[C@]1([H])CC[C@H](C(=O)N1CCOCC1)O2,25.39
Cc1cccc(-c2noc(CN3CC(n4cc(C)cn4)C3)n2)c1,26.09
CCCc1cncnc1N1CCC(NCc2ccncc2)CC1,-25.35 and -7.79
O=C(C1CCOC1)N1CCN(Cc2ccc3c(c2)CCO3)CC1 (stereo not given),-10.05
Cc1cccnc1CNC(=O)N(CCCO)C1CCc2ccccc21 (stereo not given),16.06
CN(Cc1ccccc1NCc1cccnc1)C(=O)c1cccs1,17.6
O=C(O)C(F)(F)F.O=C(O)C(F)(F)F.[H][C@@]12CCCO[C@]1([H])[C@H](NC(=O)c1cnn(C)c1)CN2Cc1cccnc1,-7.289 and 0.043
CC[C@@H]1C[C@H](C(F)(F)F)n2nc(C3CCN(S(=O)(=O)CC)CC3)cc2N1,-2.521
c1ccc(-c2nnn3c2COC(CNCC2CC2)C3)cc1 (stereo not given),4.889
CCCc1csc(-c2ccc(S(C)(=O)=O)cc2)n1,-10.95
Cc1cc(-c2nc(C3(NC(=O)OC(C)(C)C)CCC3)no2)on1,28.48
NC(=O)c1cnc(NCC(=O)NCc2ccco2)c(Cl)c1,-4.348 and -2.04
CNS(=O)(=O)c1ccc(CNC(=O)N(C)C(C)COC)cc1 (stereo not given),5.118
O=C(NCCN1CCCC(CO)C1)c1ccc2sccc2c1 (stereo not given),7.405
CC(O)CN1CCC(=O)N(Cc2ccccc2)Cc2ccccc21 (stereo not given),-28.1
Cc1cccc(NC(=O)[C@@H]2CCCN2Cc2cnc3ccccn23)n1,-23.23
Cc1nc2c(s1)C(N(C)C(=O)NCCCC(C)(C)CO)CCC2 (stereo not given),0.9947
O=C(O)C(F)(F)F.[H][C@]12CCCN(Cc3ccsc3)[C@@]1([H])CN(S(C)(=O)=O)C2,-19.21 and -8.409

The last 4 entries again:

| compound | effect |
|---|---|
| `CC(O)CN1CCC(=O)N(Cc2ccccc2)Cc2ccccc21` (stereo not given) | -28.1 |
| `Cc1cccc(NC(=O)[C@@H]2CCCN2Cc2cnc3ccccn23)n1` | -23.23 |
| `Cc1nc2c(s1)C(N(C)C(=O)NCCCC(C)(C)CO)CCC2` (stereo not given) | 0.9947 |
| `O=C(O)C(F)(F)F.[H][C@]12CCCN(Cc3ccsc3)[C@@]1([H])CN(S(C)(=O)=O)C2` | -19.21 and -8.409 |

Source: ChEMBL document CHEMBL3988442, “University of Dundee, Small-Polar-MMV Screening Library” (2021).